Measured values from patent publication US12296365B2, “Peroxyformic acid compositions for membrane filtration cleaning” (ECOLAB USA INC., priority 2015, dated 2025).

Experiment: RO membrane compatibility soak, clean water flux and salt rejection
Details: Koch HRX, 77 F
Description: In particular, the effects of PFA on reverse osmosis members which contain a polyamide structure in comparison with known control chemicals was tested. Three different membranes were tested including Koch HRX, Hydranautics CPAS and Hydranautics ESPA2+. Membranes were soaked in duplicate, in chemistries according to Table 4.
Membranes were then conditioned in Ultrasil 110 at a pH of 11 for 90 minutes at 50° C., followed by a rinse in DI water.
Each of the chemistries, with the exception of PFA was refreshed daily. PFA was refreshed hourly. After the simulated exposure the membranes are rinsed with DI water and placed on the Flat Sheet Membrane skid (Model M20). The membranes were rinsed with DI water for 24 hours at standard UF pressure and temperature. Once 24 hours was completed the membranes were subjected to alkaline conditioning step until solution pH is 11. 15.14 grams of NaCl was added to the recirculating water (2000 ppm NaCl) and the system was allowed to continue circulating. The conductivity of each permeate tube and feed was then measured and recorded and shown as percent rejection. The percent rejection was determined by (conductivity of the feed−conductivity of the permeate)/(conductivity of the feed).

| SMILES | Salt Rejection (%) Peracetic acid (57 ppm, simulated 3 Years, soak 234 hr) | Salt Rejection (%) PFA 1 YR (300 ppm, simulated 1 Year, soak 78 hr) | Salt Rejection (%) PFA 3 YR (300 ppm, simulated 3 Years, soak 234 hr) |
| --- | --- | --- | --- |
| CC(=O)OO [Peracetic acid] | 93.88% |  |  |
| O=COO [PFA, peroxyformic acid] |  | 91.26% | 87.50% |
